Data as given in PubChem BioAssay AID1259308 (NCATS, 2017).
Purpose: 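Knock-downs that increase output of a recombinant reporter protein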 (primary screen). Cell system: human HEK293 embryonic kidney cells stably expressing firefly luciferase (HEK-CMV-Luc2-Hygro). Knock-down reagent: single siRNA against human genes, 0.8 pmol siRNA per well. Time to read-out: 72 h. Read-out: 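Reporter luminescence and viable-cell signal on separate replicate plates, given as percent of non-targeting control and median/MAD z-scores, plus per-cell luciferase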. Scale: total luciferase, z-score and total luciferase, % of control: higher = more reporter protein produced. Active means: 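An siRNA counts as active if its total luciferase robust z-score exceeds 3; genes with two or more such siRNAs out of three were retested with fresh siRNAs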. Calls: active = raised luciferase; inactive = no rise.
Here is a random part of about 59,000 reagents tested. About 1,510 of all reagents (2.6%) count as active. 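Calls use total luciferase alone and ignore viability, so some active siRNAs may act by altering cell number.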 Entries without a mark were called inactive. The numbers tell different reagents against one gene apart. Not all columns of the deposit are shown.

The first 4 entries as a preview:
| gene knocked down | siRNA no. | total luciferase, z-score | total luciferase, % of control |
| --- | --- | --- | --- |
| CDADC1 (cytidine and dCMP deaminase domain containing 1) | 1 | -0.107 | 79.8 |
| CDADC1 (cytidine and dCMP deaminase domain containing 1) | 2 | 2.89 | 139 |
| CDADC1 (cytidine and dCMP deaminase domain containing 1) | 3 | 0.173 | 85.3 |
| GOT1L1 (glutamic-oxaloacetic transaminase 1 like 1) | 1 | -0.436 | 73.2 |

The list itself, repeating the preview:
| gene knocked down | siRNA no. | total luciferase, z-score | total luciferase, % of control |
| --- | --- | --- | --- |
| CDADC1 (cytidine and dCMP deaminase domain containing 1) | 1 | -0.107 | 79.8 |
| CDADC1 (cytidine and dCMP deaminase domain containing 1) | 2 | 2.89 | 139 |
| CDADC1 (cytidine and dCMP deaminase domain containing 1) | 3 | 0.173 | 85.3 |
| GOT1L1 (glutamic-oxaloacetic transaminase 1 like 1) | 1 | -0.436 | 73.2 |
| GOT1L1 (glutamic-oxaloacetic transaminase 1 like 1) | 2 | 1.42 | 110 |
| GOT1L1 (glutamic-oxaloacetic transaminase 1 like 1) | 3 | -1.33 | 55.5 |
| CLPB (ClpB family mitochondrial disaggregase) | 1 | 0.973 | 101 |
| CLPB (ClpB family mitochondrial disaggregase) | 2 | 0.394 | 89.7 |
| CLPB (ClpB family mitochondrial disaggregase) | 3 | -0.385 | 74.2 |
| LRP12 (LDL receptor related protein 12) | 1 | 0.84 | 98.6 |
| LRP12 (LDL receptor related protein 12) | 2 | 2.19 | 126 |
| LRP12 (LDL receptor related protein 12) | 3 | 0.51 | 92 |
| ARMH4 (armadillo like helical domain containing 4) | 1 | -0.665 | 68.7 |
| ARMH4 (armadillo like helical domain containing 4) | 2 | -0.643 | 69.1 |
| ARMH4 (armadillo like helical domain containing 4) | 3 | 0.412 | 90.1 |
| DYSF (dysferlin) | 1 | -0.576 | 70.4 |
| DYSF (dysferlin) | 2 | -0.277 | 76.4 |
| DYSF (dysferlin) | 3 | 0.444 | 90.7 |
| SRCAP (Snf2 related CREBBP activator protein) | 1 | 0.0705 | 83.3 |
| SRCAP (Snf2 related CREBBP activator protein) | 2 | -0.668 | 68.6 |
| SRCAP (Snf2 related CREBBP activator protein) | 3 | -1.18 | 58.4 |
| MTF2 (metal response element binding transcription factor 2) | 1 | -0.123 | 79.4 |
| MTF2 (metal response element binding transcription factor 2) | 2 | -1.09 | 60.2 |
| MTF2 (metal response element binding transcription factor 2) | 3 | 0.279 | 87.4 |
| E2F8 (E2F transcription factor 8) | 1 | -2 | 42 |
| E2F8 (E2F transcription factor 8) | 2 | 2.45 | 131 |
| E2F8 (E2F transcription factor 8) | 3 | -1.73 | 47.5 |
| LOC643675 (retired record) | 1 | -0.308 | 75.8 |
| LOC643675 (retired record) | 2 | 1.22 | 106 |
| LOC643675 (retired record) | 3 | 0.478 | 91.4 |
| LAMA2 (laminin subunit alpha 2) | 1 | -1.46 | 52.8 |
| LAMA2 (laminin subunit alpha 2) | 2 | 0.843 | 98.6 |
| LAMA2 (laminin subunit alpha 2) | 3 | -1.49 | 52.2 |
| KLHDC3 (kelch domain containing 3) | 1 | 1.77 | 117 |
| KLHDC3 (kelch domain containing 3) | 2 | -0.831 | 65.4 |
| KLHDC3 (kelch domain containing 3) | 3 | -0.171 | 78.5 |
| PRSS21 (serine protease 21) | 1 | -0.368 | 74.6 |
| PRSS21 (serine protease 21) | 2 | 0.709 | 96 |
| PRSS21 (serine protease 21) | 3 | -0.384 | 74.3 |
